{"source": "PubChem BioAssay AID1259308, NCATS | 2017", "aim": "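Candidate targets for better recombinant protein yield in mammalian cells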 (primary screen)", "cells": "human HEK293 embryonic kidney cells stably expressing firefly luciferase (HEK-CMV-Luc2-Hygro)", "knock-down reagent": "single siRNA against human genes, 0.8 pmol siRNA per well", "time to read-out": "72 h", "measured": "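Luciferase light (ONE-Glo) measured on one replicate plate set and viability (CellTiter-Glo) on the other, scaled to a negative control siRNA, with robust z-scores and luciferase per cell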", "reading the numbers": "total luciferase, z-score: higher = more reporter protein produced", "hit rule": "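An siRNA counts as active if its total luciferase robust z-score exceeds 3; genes with two or more such siRNAs out of three were retested with fresh siRNAs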", "calls": "active = raised luciferase; inactive = no rise", "note": "The deposit covers about 59,000 reagents; this is an unselected part. About 1,510 of all reagents (2.6%) were called active. 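Calls use total luciferase alone and ignore viability, so some active siRNAs may act by altering cell number.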 Reagents against one gene are numbered here. Further read-outs or replicates are left out here. Reagent sequences are not shown."}
{"target gene":"NUP42","reagent":1,"total luciferase, z-score":-0.759,"activity call":"inactive"}
{"target gene":"NUP42","reagent":2,"total luciferase, z-score":-0.492,"activity call":"inactive"}
{"target gene":"NUP42","reagent":3,"total luciferase, z-score":-1.19,"activity call":"inactive"}
{"target gene":"ZAR1L","reagent":1,"total luciferase, z-score":1.72,"activity call":"inactive"}
{"target gene":"ZAR1L","reagent":2,"total luciferase, z-score":2,"activity call":"inactive"}
{"target gene":"ZAR1L","reagent":3,"total luciferase, z-score":0.441,"activity call":"inactive"}
{"target gene":"ENSA","reagent":1,"total luciferase, z-score":-0.75,"activity call":"inactive"}
{"target gene":"ENSA","reagent":2,"total luciferase, z-score":0.171,"activity call":"inactive"}
{"target gene":"ENSA","reagent":3,"total luciferase, z-score":0.482,"activity call":"inactive"}
{"target gene":"TRAPPC9","reagent":1,"total luciferase, z-score":1.81,"activity call":"inactive"}
{"target gene":"TRAPPC9","reagent":2,"total luciferase, z-score":2.25,"activity call":"inactive"}
{"target gene":"TRAPPC9","reagent":3,"total luciferase, z-score":-1.37,"activity call":"inactive"}
